Consider one substance from paper doi:10.1101/2021.04.22.439970.

Amino acid sequences for entries named in this document (tags omitted).
UniProt P06104: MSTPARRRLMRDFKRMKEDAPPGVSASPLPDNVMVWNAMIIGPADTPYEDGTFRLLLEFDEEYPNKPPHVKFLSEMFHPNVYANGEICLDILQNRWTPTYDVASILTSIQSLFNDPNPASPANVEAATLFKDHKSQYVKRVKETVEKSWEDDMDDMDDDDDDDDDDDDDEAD
UniProt P22515: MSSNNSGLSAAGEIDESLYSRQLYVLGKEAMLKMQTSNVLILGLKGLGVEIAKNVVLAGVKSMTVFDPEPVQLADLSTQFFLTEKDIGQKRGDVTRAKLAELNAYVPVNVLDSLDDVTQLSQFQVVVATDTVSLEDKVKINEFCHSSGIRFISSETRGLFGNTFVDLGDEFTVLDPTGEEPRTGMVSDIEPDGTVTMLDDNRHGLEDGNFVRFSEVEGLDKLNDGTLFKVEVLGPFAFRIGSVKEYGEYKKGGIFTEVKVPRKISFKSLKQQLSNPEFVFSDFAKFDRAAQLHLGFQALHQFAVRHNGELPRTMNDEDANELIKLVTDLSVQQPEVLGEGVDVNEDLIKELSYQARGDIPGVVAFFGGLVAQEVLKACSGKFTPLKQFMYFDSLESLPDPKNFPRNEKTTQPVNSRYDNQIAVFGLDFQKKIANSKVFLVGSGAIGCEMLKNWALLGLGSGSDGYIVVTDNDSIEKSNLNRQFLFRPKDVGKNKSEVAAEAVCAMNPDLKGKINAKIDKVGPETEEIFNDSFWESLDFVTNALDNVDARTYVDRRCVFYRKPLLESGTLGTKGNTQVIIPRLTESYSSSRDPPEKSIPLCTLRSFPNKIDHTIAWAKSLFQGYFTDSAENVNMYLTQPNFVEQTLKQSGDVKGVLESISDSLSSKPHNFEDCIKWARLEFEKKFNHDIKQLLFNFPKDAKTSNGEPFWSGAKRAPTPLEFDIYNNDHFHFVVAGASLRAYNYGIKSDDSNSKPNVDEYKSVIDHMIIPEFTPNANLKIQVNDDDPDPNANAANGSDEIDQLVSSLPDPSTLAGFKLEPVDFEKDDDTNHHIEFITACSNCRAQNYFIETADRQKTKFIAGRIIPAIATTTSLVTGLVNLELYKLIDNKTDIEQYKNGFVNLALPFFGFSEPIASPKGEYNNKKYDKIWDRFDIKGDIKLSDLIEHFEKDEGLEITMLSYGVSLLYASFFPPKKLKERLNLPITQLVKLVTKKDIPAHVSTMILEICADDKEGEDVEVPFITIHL

These are yes or no findings as the source states them, for the method shown. Binding seen in cells or lysates may run through a third protein. Here binding means that the protein was enriched with, or labelled near, the bait; the list need not be complete.

For this assay, the target named is Rad6-HA (S. cerevisiae) (UniProt P06104). The assay can be described thus: affinity purification with mass spectrometry.

On to “Uba1 (endogenous) (from UniProt P22515 1-1024) (enzyme)”, for which the binding result was “binds”.
